In PMC3169596 one finds binding result and Kd data, which are given here for ten sequences.

The chains behind the UniProt entries cited, without tags or fusion partners. Residues count along the entry.
UniProt P08047, whole entry: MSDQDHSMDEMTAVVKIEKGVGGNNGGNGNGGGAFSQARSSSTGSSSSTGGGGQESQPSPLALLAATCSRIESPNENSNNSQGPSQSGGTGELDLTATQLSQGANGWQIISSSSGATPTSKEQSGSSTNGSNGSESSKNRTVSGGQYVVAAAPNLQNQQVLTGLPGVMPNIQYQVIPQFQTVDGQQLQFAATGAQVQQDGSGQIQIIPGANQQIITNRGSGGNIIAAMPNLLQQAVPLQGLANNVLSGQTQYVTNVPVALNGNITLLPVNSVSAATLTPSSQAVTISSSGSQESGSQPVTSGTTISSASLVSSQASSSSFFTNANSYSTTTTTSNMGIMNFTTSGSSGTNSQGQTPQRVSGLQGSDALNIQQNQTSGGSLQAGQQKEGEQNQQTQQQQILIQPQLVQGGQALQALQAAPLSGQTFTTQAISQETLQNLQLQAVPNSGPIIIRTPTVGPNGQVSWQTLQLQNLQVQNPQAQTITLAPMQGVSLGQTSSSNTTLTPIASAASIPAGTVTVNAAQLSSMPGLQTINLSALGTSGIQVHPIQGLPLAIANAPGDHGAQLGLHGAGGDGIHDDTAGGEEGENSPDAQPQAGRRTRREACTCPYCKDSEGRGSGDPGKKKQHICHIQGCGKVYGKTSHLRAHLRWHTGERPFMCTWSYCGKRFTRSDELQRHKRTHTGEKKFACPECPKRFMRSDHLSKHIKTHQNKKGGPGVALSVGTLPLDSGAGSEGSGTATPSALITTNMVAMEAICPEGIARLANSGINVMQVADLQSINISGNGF
UniProt P02769, 25-607: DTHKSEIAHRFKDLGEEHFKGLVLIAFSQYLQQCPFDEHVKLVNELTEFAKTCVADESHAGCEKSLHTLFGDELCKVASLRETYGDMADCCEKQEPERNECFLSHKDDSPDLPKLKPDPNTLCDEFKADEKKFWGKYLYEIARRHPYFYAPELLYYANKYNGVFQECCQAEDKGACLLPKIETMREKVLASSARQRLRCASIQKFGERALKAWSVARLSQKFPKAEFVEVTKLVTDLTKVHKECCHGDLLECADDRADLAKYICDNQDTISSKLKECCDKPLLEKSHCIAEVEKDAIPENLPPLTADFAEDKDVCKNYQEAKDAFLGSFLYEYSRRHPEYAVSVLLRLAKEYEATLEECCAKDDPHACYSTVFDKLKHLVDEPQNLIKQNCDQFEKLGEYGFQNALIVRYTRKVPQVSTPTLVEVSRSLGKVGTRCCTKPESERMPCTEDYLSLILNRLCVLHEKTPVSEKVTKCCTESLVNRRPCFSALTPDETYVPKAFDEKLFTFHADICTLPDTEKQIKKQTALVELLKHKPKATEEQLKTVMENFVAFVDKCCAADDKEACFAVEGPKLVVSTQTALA

One series has as its target Sp1-GST (UniProt P08047). In words: EMSA. The note with it: EMSA: 20 mM Tris-HCl pH 8, 30 mM KCl, 1.5 mM MgCl2, 1 mM DTT, 8% glycerol, 5 mM NaF, 1 mM Na3VO4, 2.5 ng/ml poly[dI-dC], 30 min room temperature, recombinant protein, protein details: GST, label: 33P. Background: In EMSA bound probe runs differently from free probe, usually more slowly.
Series [1] deals with T1, MAZ-GST (UniProt P56270).
T1 sequence (looked up, limits assumed): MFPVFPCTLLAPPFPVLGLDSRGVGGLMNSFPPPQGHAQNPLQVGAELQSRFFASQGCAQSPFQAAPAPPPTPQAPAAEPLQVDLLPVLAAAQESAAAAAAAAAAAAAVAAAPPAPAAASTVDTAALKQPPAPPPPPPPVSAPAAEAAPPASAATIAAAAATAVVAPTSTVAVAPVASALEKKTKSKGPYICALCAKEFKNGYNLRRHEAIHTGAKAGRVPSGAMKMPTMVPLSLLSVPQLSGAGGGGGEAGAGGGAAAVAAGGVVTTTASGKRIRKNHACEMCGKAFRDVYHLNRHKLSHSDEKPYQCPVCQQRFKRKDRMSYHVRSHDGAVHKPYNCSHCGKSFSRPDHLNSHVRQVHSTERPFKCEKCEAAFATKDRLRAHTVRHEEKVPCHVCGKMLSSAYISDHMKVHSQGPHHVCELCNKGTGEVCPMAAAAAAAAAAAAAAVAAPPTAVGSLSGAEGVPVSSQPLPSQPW
As to the kind of experiment: EMSA. To be noted: EMSA: 20 mM Tris-HCl pH 8, 30 mM KCl, 1.5 mM MgCl2, 1 mM DTT, 8% glycerol, 5 mM NaF, 1 mM Na3VO4, 2.5 ng/ml poly[dI-dC], 30 min room temperature, recombinant protein, protein details: GST, label: 33P.

The target of series [2] is T1, MAZ-GST. As to the kind of experiment: competition with a labelled probe. The note with it: 3 ug MAZ, 10 nM labelled qhras-1, 10- and 50-fold cold decoy, TINA (P) after nt 2 and after nt 19, EMSA: 20 mM Tris-HCl pH 8, 30 mM KCl, 1.5 mM MgCl2, 1 mM DTT, 8% glycerol, 5 mM NaF, 1 mM Na3VO4, 2.5 ng/ml poly[dI-dC], 30 min room temperature, recombinant protein, protein details: GST, synthetic backbone.

The target in series [3] is T1, MAZ-GST. In words: FRET melting. To be noted: 100 mM NaCl, 50 uM Zn acetate, destabilizes G4 at r = 2.5-10, FRET: 50 mM Tris-HCl pH 7.4, 50 mM KCl or 100 mM NaCl, recombinant protein, protein details: GST, label: FAM and TAMRA, folded or branched ….
The next series concerns the target BSA (UniProt P02769). In words: FRET melting. The note with it: r = 10, no effect on melting, 50 mM KCl, 50 uM Zn acetate, FRET: 50 mM Tris-HCl pH 7.4, 50 mM KCl or 100 mM NaCl, commercial protein, label: 5' FAM, 3' TAMRA, folded or branched DNA.
[4] abbreviates: pH 9, interaction inhibited, folded or branched DNA.
Setting [5] is: 50 mM CsCl, both complexes destabilized, single-stranded DNA.

pKd: −log10 of the molar value. For some assays here: Negatives hold for the conditions tested. For some assays here: For at least one entry, the source does not settle the construct or the ends of the probe. For some assays here: Weaker means in comparison with the reference protein, sequence or condition of that experiment. For some assays here: At least one verdict was read from the data and is not stated in words by the source. For some assays here: Tags and fusion partners may be left off the protein sequences shown.

In the case of “CGAGGCCGGGGCGGGGCGGGGGCGGGGGCGCGCGGT (double strand) [duplex hras-2]”, the binding result with Sp1-GST and with MAZ-GST [1] was “binds” throughout.
On to “TCGGGTTGCGGGCGCAGGGCACGGGCGG [G4-decoy 4]”, for which the binding result with MAZ-GST [2] (LNA residues (positions lost in text)) is given as “binds”.
By pKd is commonly meant the Kd on a negative log10 scale, so that one unit is a factor of ten. For the sequence “CGAGGCCGGGGCGGGGCGGGGGCGGGGGCGCGCGGT [qhras-2 (quadruplex hras-2, H2)]”, the binding result with Sp1-GST (folded or branched DNA) was “no binding”; in the series with MAZ-GST [1] (setting [4]) it was “binds more weakly”. Also, the pKd in the series with MAZ-GST [1] (50 mM KCl, pH 7.4, poly d(I-C), apparent Kd given for the HRAS quadruplexes together, folded or branched DNA) is 5.82.
On to “TCGGGTTGCGGGCGCAGGGCACGGGCGG [G4-decoy 5]”, for which the binding result with MAZ-GST [2] (LNA residues differ from decoy 4 (positions lost in text)) is “binds”.
Take “CGAGGCCGGGGCGGGGCGGGGGCGGGGGCGCGCGGT [qhras-2, FRET-labelled]”: the binding result with MAZ-GST [3] was “binds”.
“TCGGGTTGCGGGCGCAGGGCACGGGCG (double strand) [duplex hras-1]”: the binding result with MAZ-GST [1] is reported as “binds”.
In the case of “TCGGGTTGCGGGCGCAGGGCACGGGCG [hras-1 in Cs+ (unstructured)]”, the binding result with MAZ-GST [1] (setting [5]) is on record as “binds more weakly”.
The same measure, in the same setting: under “CGAGGCCGGGGCGGGGCGGGGGCGGGGGCGCGCGGT [hras-2 in Cs+ (unstructured)]” stands “binds more weakly”.
“TCGGGTTGCGGGCGCAGGGCACGGGCG [qhras-1 (quadruplex hras-1, H1)]”: the binding result with Sp1-GST (binds, weaker than MAZ, folded or branched DNA) is on record as “binds more weakly”; in the series with MAZ-GST [1] (setting [4]), “binds more weakly”.
In the case of “TCGGGTTGCGGGCGCAGGGCACGGGCG [qhras-1, FRET-labelled]”, the binding result in the series with BSA is “no binding”.
